Source: publication PMC3995007, “GTP binding controls complex formation by the human ROCO protein MASL1” (The Febs Journal, 2013)
Results are given in words; binding and its absence hold for the method and conditions named. In cells and extracts the contact can be indirect. A yes stands for co-enrichment or nearness to the bait. Other partners may have been found. Sequences can lack the tags named with a protein.

Chains of the proteins cited; added tags and fusions are not shown. Residues count along the entry.
UniProt P10809, residues 27-573: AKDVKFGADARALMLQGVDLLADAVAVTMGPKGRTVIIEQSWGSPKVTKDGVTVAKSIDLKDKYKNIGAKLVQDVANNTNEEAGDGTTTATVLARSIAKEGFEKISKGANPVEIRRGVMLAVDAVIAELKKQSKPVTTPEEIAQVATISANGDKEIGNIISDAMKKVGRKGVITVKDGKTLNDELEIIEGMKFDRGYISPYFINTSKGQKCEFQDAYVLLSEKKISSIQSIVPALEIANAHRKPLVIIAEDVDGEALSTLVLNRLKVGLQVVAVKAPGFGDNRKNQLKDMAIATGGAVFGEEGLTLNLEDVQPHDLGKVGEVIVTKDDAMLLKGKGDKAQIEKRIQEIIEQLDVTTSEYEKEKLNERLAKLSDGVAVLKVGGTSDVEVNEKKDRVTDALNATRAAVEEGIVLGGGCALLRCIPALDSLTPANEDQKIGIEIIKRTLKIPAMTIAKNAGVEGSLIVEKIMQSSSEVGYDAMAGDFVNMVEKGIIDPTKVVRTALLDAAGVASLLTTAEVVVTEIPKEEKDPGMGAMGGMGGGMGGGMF

Target: T1, FLAG-tagged wild type MASL1 (malignant fibrous histiocytoma amplified sequences with leucine-rich tandem repeats 1) (human) (UniProt Q9Y4C4)
T1 sequence: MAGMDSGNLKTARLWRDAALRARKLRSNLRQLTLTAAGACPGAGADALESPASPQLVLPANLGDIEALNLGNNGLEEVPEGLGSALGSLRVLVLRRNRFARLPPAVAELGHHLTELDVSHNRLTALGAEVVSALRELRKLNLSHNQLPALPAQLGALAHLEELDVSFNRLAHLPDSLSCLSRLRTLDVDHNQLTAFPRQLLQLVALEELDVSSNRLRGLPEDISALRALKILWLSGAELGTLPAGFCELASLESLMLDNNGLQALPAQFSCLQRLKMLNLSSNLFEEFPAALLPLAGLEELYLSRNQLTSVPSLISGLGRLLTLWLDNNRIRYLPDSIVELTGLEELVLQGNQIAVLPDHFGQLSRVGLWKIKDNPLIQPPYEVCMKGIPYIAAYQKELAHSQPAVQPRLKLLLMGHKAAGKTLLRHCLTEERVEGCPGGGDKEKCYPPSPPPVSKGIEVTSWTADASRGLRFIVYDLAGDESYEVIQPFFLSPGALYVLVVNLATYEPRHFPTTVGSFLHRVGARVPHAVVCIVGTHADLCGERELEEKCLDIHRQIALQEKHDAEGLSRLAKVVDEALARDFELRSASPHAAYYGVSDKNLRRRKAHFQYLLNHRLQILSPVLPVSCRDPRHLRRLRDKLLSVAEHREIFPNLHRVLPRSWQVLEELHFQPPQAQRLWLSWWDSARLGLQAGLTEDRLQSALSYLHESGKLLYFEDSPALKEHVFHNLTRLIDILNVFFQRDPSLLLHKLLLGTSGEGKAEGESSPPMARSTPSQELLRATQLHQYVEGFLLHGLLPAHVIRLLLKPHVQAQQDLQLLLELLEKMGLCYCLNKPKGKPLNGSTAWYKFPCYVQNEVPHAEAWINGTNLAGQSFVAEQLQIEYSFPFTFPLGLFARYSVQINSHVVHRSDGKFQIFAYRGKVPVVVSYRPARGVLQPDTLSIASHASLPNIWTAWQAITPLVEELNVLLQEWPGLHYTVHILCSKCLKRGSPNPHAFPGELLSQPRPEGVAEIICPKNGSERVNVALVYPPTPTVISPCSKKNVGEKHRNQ
Assay: affinity purification with mass spectrometry; lysates of MASL1 transfected HEK293T cells immunoprecipitated with FLAG-agarose beads, washed with 20 mM Tris, 150-500 mM NaCl, 0.02-1% Triton X-100; bands cut from SDS/PAGE, MALDI-QTOF MS

How did the binding turn out when “Heat shock protein 60 (HSP60) (from UniProt P10809 27-573)” was run?
The binding was “binds”.
